The source of these data is US5344933A, “Pyrrole ring-or condensed pyrrole ring-containing azomethine dye” (Fuji Photo Film Co., Ltd., priority 1991, dated 1994).

The nature of the series: Thermal head printing on heat transfer image-receiving material (Example 2 and following). The settings on record: Table 1, polyvinyl butyral resin. The source says:
Onto a 6-μm thick polyethylene terephthalate film (produced by Teijin Limited) which had been rendered heat resistant and smoothened on its back side as a support was coated a heat transfer dye providing layer coating composition having the following formulations by a wire bar coating process to a dry thickness of 1.5 μm to prepare a heat transfer dye providing material (1-1).
Heat transfer dye providing materials (1-2) to (1-10) of the present invention and a comparative heat transfer dye providing material (1-11) were prepared in the same manner as mentioned above except that Dye 2 was replaced by other dyes as set forth in Table 1, respectively.
Onto a 150-μm thick synthetic paper (YUPO-FPG-150 produced by Oji Yuka Goseishi Co., Ltd.) was coated an image-receiving layer coating composition having the following formulations by a wire bar coating process to a dry thickness of 8 μm to prepare a heat transfer image-receiving material. The material was tentatively dried by a dryer, and then dried in an oven at a temperature of 100° C. for 30 minutes.
The heat transfer dye providing materials (1-1) to (1-11) thus obtained were each laminated with the heat transfer image-receiving material in such an arrangement that the heat transfer dye providing layer was brought into contact with the image-receiving layer. Printing was effected by a thermal head on the heat transfer dye providing material from the support side under the conditions of thermal head output of 0.25 W/dot, pulse width of 0.15 to 15 msec., and dot density of 6 dots/mm to cause the cyan dye to be imagewise transferred to the image-receiving layer in the image-receiving material. As a result, a sharp recording was provided free of uneven transfer.
Take `CCOC(=O)c1cn2c(nc1=O)C(C#N)=C(C#N)C2=Nc1ccc(N(CC)CC)cc1NC(=O)N(C)C` [Dye 16]: the Maximum density is listed as 1.5.

The molecule `CCOC(=O)c1cn2c(nc1=O)C(C#N)=C(c1ccccc1)C2=Nc1ccc(N(CC)CC)cc1` [Dye 8] came in with a Maximum density of 1.9.

The molecule `CCOC(=O)c1cn2c(nc1=O)C(C#N)=C(c1ccccc1)C2=Nc1ccc(N(CC)CC)cc1NC(=O)OC` [Dye 12] displayed a Maximum density of 1.3. The molecule `CCN(CC)c1ccc(N=C2C(C#N)=C(c3ccccc3)c3nc(=O)ccn32)c(NC(C)=O)c1` [Dye 17] came in with a Maximum density of 1.3. Turning to `CCC1=C(Cl)C(=O)C(NC(=O)c2ccco2)=CC1=Nc1ccc(N(CC)CC)cc1` [Dye a, reference compound], the Maximum density is reported as 2.5. For `CCOC(=O)c1c(C)n2c(nc1=O)C(C#N)=C(c1ccccc1)C2=Nc1ccc(N(CC)CCOc2ccc(OC)cc2)cc1` [Dye 3] the value was 1.3; for `CCOC(=O)c1c(C)n2c(nc1=O)C(C#N)=C(c1ccccc1)C2=Nc1ccc(N(CC)CC)cc1NC(=O)OC` [Dye 4], 1.3; for `CCOC(=O)C1=C(C#N)C(=Nc2ccc(N(CC)CC)cc2)n2c1nc1ccccc1c2=O` [Dye 29], 1.7. Consider `CCN(CC)c1ccc(N=C2C(c3ccccc3)=C(C#N)c3nc(=O)c4ccccc4n32)c(NC(C)=O)c1` [Dye 22], for which the Maximum density turned out to be 1.4. Then `CCOC(=O)c1c(C)n2c(nc1=O)C(C#N)=C(c1ccccc1)C2=Nc1ccc(N(CC)CC)cc1` [Dye 2], with 1.8; and `CCOC(=O)c1cn2c(nc1=O)C(C#N)=C(c1ccccc1)C2=Nc1ccc(N(CC)CCOc2ccc(OC)cc2)cc1` [Dye 10], with 2.0.
